Measurements reported in PubChem BioAssay AID493246 (Drosophila RNAi Screening Center, 2011)

Test: 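Identify essential fly genes by loss of cell viability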 (primary screen)
System: Drosophila Kc and S2R+ cells
Knock-down reagent: long dsRNA against Drosophila genes
Detection: 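Cell number per well after knock-down, printed as raw plate values; calls were based on per-plate z-scores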
Direction: Kc cell number and S2R+ cell number: higher = more cells remaining
Active means: 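Counted as a hit if cell number falls by a z-score of at least 3 within its plate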
The screen tested about 21,000 reagents; shown is an unselected part of those that have a named target and a result. Of all reagents, 429 (2%) were called active. 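Values are raw and not normalised between plates; calls rest on per-plate z-scores that were not deposited.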 Names joined by + are all predicted targets of the reagent. The record does not give: the amount of reagent, the time to read-out.

Kc cell number, rep 1 | Kc cell number, rep 2 | S2R+ cell number, rep 1 | S2R+ cell number, rep 2 | activity call | gene knocked down | amplicon
1.34e6 | 1.41e6 | 1.01e6 | 1.14e6 | inactive | chrb | DRSC11335
1.54e6 | 1.56e6 | 1.18e6 | 1.28e6 | inactive | Lip2 | DRSC02577
1.55e6 | 1.56e6 | 1.22e6 | 1.32e6 | inactive | Lip2 | DRSC02578
1.20e6 | 1.13e6 | 7.63e5 | 8.70e5 | active | msopa | DRSC11895
1.33e6 | 1.40e6 | 1.23e6 | 1.24e6 | inactive | 18w | DRSC05029
1.39e6 | 1.43e6 | 1.22e6 | 1.28e6 | inactive | PGRP-SC1b | DRSC07215
1.54e6 | 1.65e6 | 1.18e6 | 2.93e5 | inactive | tsh | DRSC03740
1.58e6 | 1.72e6 | 1.34e6 | 1.39e6 | inactive | Pli | DRSC16792
5.15e5 | – | 7.95e5 | – | inactive | Rilpl | DRSC18494
1.45e6 | 1.43e6 | 1.11e6 | 1.21e6 | inactive | CstF64 | DRSC16616
1.47e6 | 1.57e6 | 1.22e6 | 1.32e6 | inactive | Cpr31A | DRSC02779
1.57e6 | 1.65e6 | 1.27e6 | 1.42e6 | inactive | CG4681 | DRSC04481
1.36e6 | 1.47e6 | 1.10e6 | 1.12e6 | inactive | kl-3 (retired record) | DRSC20730
1.54e6 | 1.55e6 | 1.09e6 | 1.30e6 | inactive | kl-3 (retired record) | DRSC20891
1.50e6 | 1.69e6 | 1.05e6 | 1.18e6 | inactive | kl-3 (retired record) | DRSC20934
1.67e6 | 1.92e6 | 1.28e6 | 1.42e6 | inactive | CG34168 | DRSC01938
1.46e6 | 1.60e6 | 9.09e5 | 9.30e5 | inactive | Rtf1 | DRSC04085
1.69e6 | 1.64e6 | 1.22e6 | 1.43e6 | inactive | Cyp4e3 | DRSC03306
1.55e6 | 1.73e6 | 1.08e6 | 1.34e6 | inactive | pxb | DRSC13110
1.42e6 | 1.42e6 | 1.13e6 | 1.25e6 | inactive | pxb | DRSC14996
1.42e6 | 1.43e6 | 1.15e6 | 1.28e6 | inactive | pxb | DRSC14997
1.71e6 | 1.77e6 | 9.99e5 | 1.12e6 | inactive | CG6610 | DRSC10674
1.95e6 | 1.95e6 | 1.38e6 | 1.67e6 | inactive | CG12589 | DRSC12215
1.53e6 | 1.59e6 | 1.28e6 | 1.32e6 | inactive | CG5342 | DRSC15776
1.58e6 | 1.78e6 | 1.28e6 | 1.48e6 | inactive | Osi13 | DRSC12281
1.33e6 | 1.38e6 | 8.29e5 | 9.43e5 | active | Cenp-C | DRSC14371
1.62e6 | 1.83e6 | 1.18e6 | 1.39e6 | inactive | CG3902 | DRSC10387
1.35e6 | 1.53e6 | 1.08e6 | 1.15e6 | inactive | CG3285 | DRSC00589
1.62e6 | 1.62e6 | 1.17e6 | 1.28e6 | inactive | disco-r | DRSC20173
1.68e6 | 1.67e6 | 1.19e6 | 1.29e6 | inactive | disco-r | DRSC20174
1.59e6 | 1.64e6 | 1.07e6 | 1.20e6 | inactive | Obp56h | DRSC06433
1.56e6 | 1.67e6 | 1.36e6 | 1.33e6 | inactive | CG6790 | DRSC16117
1.37e6 | 1.47e6 | 1.32e6 | 1.26e6 | inactive | NimB1 | DRSC01880
1.66e6 | 1.71e6 | 1.46e6 | 1.55e6 | inactive | CG13331 | DRSC06366
1.61e6 | 1.68e6 | 1.37e6 | 1.48e6 | inactive | RacGAP84C | DRSC12630
4.80e5 | – | 7.95e5 | – | inactive | CG30398 | DRSC03891
1.58e6 | 1.63e6 | 1.11e6 | 1.32e6 | inactive | Taf10b | DRSC00792
1.61e6 | 1.54e6 | 9.58e5 | 1.39e6 | inactive | CG13443 | DRSC06403
1.50e6 | 1.61e6 | 1.16e6 | 1.14e6 | inactive | Eato | DRSC01891
1.54e6 | 1.61e6 | 1.21e6 | 1.32e6 | inactive | Eato | DRSC03061
1.41e6 | 1.51e6 | 1.38e6 | 1.01e6 | inactive | Gtpx | DRSC08221
1.24e6 | 1.46e6 | 1.17e6 | 1.29e6 | inactive | Cog4 | DRSC03057
1.63e6 | 1.60e6 | 1.08e6 | 1.20e6 | inactive | CG18558 | DRSC00525
1.72e6 | 1.66e6 | 1.09e6 | 1.25e6 | inactive | CG15478 | DRSC18057
1.59e6 | 1.64e6 | 1.51e6 | 1.48e6 | inactive | Hpd | DRSC11670
1.62e6 | 1.79e6 | 1.23e6 | 1.31e6 | inactive | CG7483 | DRSC16249
1.62e6 | 1.71e6 | 1.06e6 | 1.20e6 | inactive | CG34460 | DRSC06974
1.57e6 | 1.60e6 | 1.19e6 | 2.96e5 | inactive | CG10747 | DRSC02104
1.67e6 | 1.77e6 | 1.40e6 | 1.57e6 | inactive | mtg | DRSC16256
1.31e6 | 1.45e6 | 9.47e5 | 8.40e5 | inactive | ND-30 | DRSC08243
1.42e6 | 1.42e6 | 1.00e6 | 1.12e6 | inactive | BEAF-32 + CG42254 (retired record) | DRSC05503
1.45e6 | 1.45e6 | 1.05e6 | 1.16e6 | inactive | CG15914 | DRSC19739
1.38e6 | 1.83e6 | 1.21e6 | 1.33e6 | inactive | CG14135 | DRSC10140
1.55e6 | 1.60e6 | 1.23e6 | 1.34e6 | inactive | NimC2 | DRSC01881
1.43e6 | 1.45e6 | 1.06e6 | 1.15e6 | inactive | CG46301 | DRSC01916
1.56e6 | 1.62e6 | 1.20e6 | 1.27e6 | inactive | CG13002 | DRSC19521
5.31e5 | – | 7.64e5 | – | inactive | Ctl2 | DRSC14423
1.63e6 | 1.60e6 | 1.36e6 | 1.54e6 | inactive | Np | DRSC06089
1.68e6 | 1.79e6 | 1.39e6 | 1.51e6 | inactive | Np | DRSC07094
1.44e6 | 1.54e6 | 1.32e6 | 1.45e6 | inactive | CG11000 | DRSC12158
1.48e6 | 1.50e6 | 1.04e6 | 1.16e6 | inactive | CG8138 | DRSC16386
1.71e6 | 1.72e6 | 1.21e6 | 1.34e6 | inactive | CG8360 | DRSC03085
1.49e6 | 1.60e6 | 1.20e6 | 1.32e6 | inactive | CG33958 | DRSC06472
1.56e6 | 1.59e6 | 1.15e6 | 1.24e6 | inactive | CG33958 | DRSC06944
1.88e6 | 1.82e6 | 1.25e6 | 1.45e6 | inactive | CG2070 | DRSC06814
1.47e6 | 1.64e6 | 9.97e5 | 1.10e6 | inactive | Prp3 | DRSC10912
6.10e5 | – | 9.21e5 | – | inactive | Ost48 | DRSC18693
1.34e6 | 1.40e6 | 1.34e6 | 1.35e6 | inactive | Mcm5 | DRSC16735
1.41e6 | 1.46e6 | 1.16e6 | 1.22e6 | inactive | Mtr3 | DRSC10953
1.63e6 | 1.73e6 | 1.17e6 | 1.33e6 | inactive | Mlp60A | DRSC04623
1.35e6 | 1.42e6 | 1.05e6 | 1.14e6 | inactive | sprt | DRSC07323
1.52e6 | 1.62e6 | 1.28e6 | 1.26e6 | inactive | CG34342 | DRSC09756
1.32e6 | 1.32e6 | 1.28e6 | 1.37e6 | inactive | CG10154 | DRSC09707
1.33e6 | 1.32e6 | 6.66e5 | 9.54e5 | inactive | CG9154 | DRSC03150
1.54e6 | 1.48e6 | 8.57e5 | 9.39e5 | inactive | CG15370 | DRSC18042
